Data taken from PubChem BioAssay AID248 (DTP/NCI, 2004).
The list does not hold the whole screen: it gathers tests that were run many times, whatever their T/C, doses with no T/C, and many T/C values between a quarter and a half above the control. Other doses and runs of a compound stand elsewhere. T/C gives the treated animals as a percentage of the vehicle group. Some doses have a count of surviving animals in place of a T/C: the source files T/C as zero there, which appears to mark a toxic dose or a test without result, not a measured value. Some doses without a T/C left all or most animals alive at the check, yet need not have been tolerated: the source hardly ever lists a survival T/C far under the control, and the zero likely stands for such cases as well. Counts of survivors are from the toxicity check (mostly the fifth day) where no day follows; animals may have died later. Schedules are NCI's codes, read here as Q, the interval in days (D) or hours (H), X, the number of doses. Some doses were run more than once; the values are given in rising order. Some schedules carry Z or #; the key to these is not given. For survival time, this PubChem deposit counts one and a half times the control or more as active, and values a quarter to a half above the control carry no call in these data; other NCI protocols may use other cut-offs. Some T/C values are followed by the survivors on the day toxicity was checked, most often the fifth; without a count, all were alive then.

System: L1210 leukemia ip in BDF1 mice, survival T/C
Assay: NCI In Vivo Anticancer Drug Screen. Data for tumor model L1210 Leukemia (intraperitoneal) in B6D2F1 (BDF1) mice
Conditions: T/C endpoint: mean survival time, higher T/C = longer survival
[1] = dose: 200.0 mg/kg/injection, schedule: Q01DX009 (ip), vehicle: Klucel (hydroxypropylcellulose) (HPC)
[2] = dose: 100.0 mg/kg/injection, schedule: Q04DX002 (ip), vehicle: Klucel (hydroxypropylcellulose) (HPC)
[3] = dose: 200.0 mg/kg/injection, schedule: Q04DX002 (ip), vehicle: Klucel (hydroxypropylcellulose) (HPC)
[4] = dose: 400.0 mg/kg/injection, schedule: Q04DX002 (ip), vehicle: Klucel (hydroxypropylcellulose) (HPC)
[5] = dose: 150.0 mg/kg/injection, schedule: Q01DX001 (ip), vehicle: saline
[6] = dose: 300.0 mg/kg/injection, schedule: Q01DX001 (ip), vehicle: saline
[7] = dose: 400.0 mg/kg/injection, schedule: Q01DX009 (ip), vehicle: Klucel (hydroxypropylcellulose) (HPC)
[8] = dose: 200.0 mg/kg/injection, schedule: Q04DX002 (ip), vehicle: saline with Tween-80
[9] = dose: 100.0 mg/kg/injection, schedule: Q01DX009 (ip), vehicle: Klucel (hydroxypropylcellulose) (HPC)
[10] = dose: 200.0 mg/kg/injection, schedule: Q01DX009 (ip), vehicle: saline
[11] = dose: 400.0 mg/kg/injection, schedule: Q04DX003 (ip), vehicle: saline
[12] = dose: 400.0 mg/kg/injection, schedule: Q04DX003 (ip), vehicle: Klucel (hydroxypropylcellulose) (HPC)

CN1C(OO)CCOP1(=O)N(CCCl)CCCl (centres undefined)
survivor count (dose: 300.0 mg/kg/injection, schedule: Q01DX001 (ip), vehicle: DMSO): 0 of 6

COC1OC(C2N(c3ccccc3)CCN2c2ccccc2)=CC(OC(C)=O)C1OC(C)=O (centres undefined)
survivor count [1]: 6 of 6

Cc1cnc(C#N)c(C#N)n1
survivor count [2]: 0 of 3
survivor count [3]: 0 of 3
survivor count [4]: 0 of 3

c1ccc([P+]2(c3ccccc3)CC[P+](c3ccccc3)(c3ccccc3)CC2)cc1
survivor count [5]: 0 of 6
survivor count [6]: 0 of 6

O=C1C=C(C(=O)O)CO1
survivor count [1]: 2 of 6
survivor count [7]: 0 of 6

O=[N+]([O-])c1ccc(NN=C2c3ccccc3Cc3ccccc32)c([N+](=O)[O-])c1
survivor count [8]: 3 of 3

c1ccc(C2OCCCO2)cc1
survivor count (dose: 50.0 mg/kg/injection, schedule: Q01DX009 (ip), vehicle: Klucel (hydroxypropylcellulose) (HPC)): 4 of 4
survivor count [9]: 6 of 6
survivor count [1]: 6 of 6

C#CC(O)(/C=C\Cl)CC (centres undefined)
survivor count [10]: 2 of 6
survivor count [11]: 1 of 4

COC1OC(CI)C(OS(C)(=O)=O)C(OC(=O)c2ccccc2)C1OC(=O)c1ccccc1 (centres undefined)
survivor count [4]: 3 of 3

Cc1cccnc1Sc1ccc(C(C)(C)C)cc1
T/C (dose: 100.0 mg/kg/injection, schedule: Q04DX002 (ip), vehicle: other): 97, 98, 102, 104 % of control
T/C (dose: 200.0 mg/kg/injection, schedule: Q04DX002 (ip), vehicle: other): 94, 95, 104, 112 % of control
T/C (dose: 400.0 mg/kg/injection, schedule: Q04DX002 (ip), vehicle: other): 86, 88, 90, 163 % of control [2 of 3 alive]
survivor count (dose: 800.0 mg/kg/injection, schedule: Q04DX002 (ip), vehicle: other): 2 of 3 and 6 of 6

CCOc1ccc(NC(=O)NCBr)cc1
survivor count (dose: 50.0 mg/kg/injection, schedule: Q01DX009 (ip), vehicle: saline with Tween-80): 3 of 3
survivor count (dose: 200.0 mg/kg/injection, schedule: Q01DX009 (ip), vehicle: saline with Tween-80): 3 of 3

CC(=O)Oc1c2c(c(CC=C(C)C)c3c1C(=O)C1=CC4CC5C(C)(C)OC(C/C=C(/C)C(=O)O)(C4=O)C15O3)OC(C)(CCC=C(C)C)C=C2 (centres undefined)
survivor count [1]: 1 of 6

CCCCNc1c(C2=NCCN2)cnc2c1cnn2CC
survivor count (dose: 200.0 mg/kg/injection, schedule: Q04DX003 (ip), vehicle: Klucel (hydroxypropylcellulose) (HPC)): 0 of 3
survivor count [12]: 0 of 3

CCC([NH-])=O.CCC([NH-])=O.[Pt+2]
survivor count (dose: 400.0 mg/kg/injection, schedule: Q01DX009 (ip), vehicle: water): 1 of 6

CCCCC(C)C1(CC)C(=O)NC(=O)NC1=O (centres undefined)
survivor count [5]: 2 of 6
survivor count [6]: 0 of 6

O=C(O)c1cc2ccccc2cc1O.Oc1cccc2cccnc12.[Cu]
survivor count (dose: 2.0 mg/kg/injection, schedule: Q01DX015 (ip), vehicle: carboxymethylcellulose (CMC)): 6 of 6
survivor count (dose: 4.0 mg/kg/injection, schedule: Q01DX015 (ip), vehicle: carboxymethylcellulose (CMC)): 6 of 6
survivor count (dose: 16.0 mg/kg/injection, schedule: Q01DX015 (ip), vehicle: carboxymethylcellulose (CMC)): 2 of 6

CC1CCC(C(O)(C(=O)O)C2CCC(C)CC2)CC1 (centres undefined)
survivor count (dose: 300.0 mg/kg/injection, schedule: Q01DX001 (ip), vehicle: other): 0 of 6

O=[As](O)(c1cccc(Cl)c1)c1cccc(Cl)c1
survivor count [5]: 2 of 6
survivor count [6]: 0 of 6

CCOP(=O)(OCC)c1ccc([N+](=O)[O-])cc1
survivor count (dose: 400.0 mg/kg/injection, schedule: Q01DX001 (ip), vehicle: saline): 5 of 6

N#[N+]c1c(O)cc(S(=O)(=O)O)c2ccccc12
survivor count [10]: 6 of 6
survivor count (dose: 400.0 mg/kg/injection, schedule: Q01DX009 (ip), vehicle: saline): 6 of 6
survivor count [11]: 6 of 6

Cc1n(CCBr)c([N+](=O)[O-])c[n+]1C1N=C(c2ccccc2)c2cc(Cl)ccc2NC1=O (centres undefined)
survivor count [12]: 2 of 3

CC(C)N(C(C)C)C(C)CCNc1c2ccccc2nc2cc(Cl)ccc12 (centres undefined)
T/C (dose: 2.0 mg/kg/injection, schedule: Q01DX Z (ip), vehicle: methylcellulose (MC)): 129 % of control
T/C (dose: 7.0 mg/kg/injection, schedule: Q01DX Z (ip), vehicle: methylcellulose (MC)): 139 % of control

CN(N=O)C(=O)NCCn1cnc2c(=S)nc[nH]c21
survivor count (dose: 200.0 mg/kg/injection, schedule: Q01DX Z (ip), vehicle: carboxymethylcellulose (CMC)): 1 of 6
survivor count (dose: 250.0 mg/kg/injection, schedule: Q01DX Z (ip), vehicle: carboxymethylcellulose (CMC)): 1 of 6
survivor count (dose: 300.0 mg/kg/injection, schedule: Q01DX Z (ip), vehicle: carboxymethylcellulose (CMC)): 3 of 6

c1ccc(CSc2ncnc3nc[nH]c23)nc1
T/C (dose: 200.0 mg/kg/injection, schedule: Q04DX003 (ip), vehicle: saline sonified): 140 % of control

CN(C)[Se](=O)Cl (centres undefined)
survivor count (dose: 50.0 mg/kg/injection, schedule: Q04DX002 (ip), vehicle: saline with Tween-80): 0 of 3
survivor count (dose: 100.0 mg/kg/injection, schedule: Q04DX002 (ip), vehicle: saline with Tween-80): 0 of 3
survivor count [8]: 0 of 3
survivor count (dose: 400.0 mg/kg/injection, schedule: Q04DX002 (ip), vehicle: saline with Tween-80): 0 of 3

CC12c3ccccc3C(c3ccccc31)C1C(=O)OC(=O)C12 (centres undefined)
survivor count (dose: 400.0 mg/kg/injection, schedule: Q04DX003 (ip), vehicle: saline with Tween-80): 4 of 6

CCN(CC)CCNC(=O)c1ccc(N=Cc2cc(Br)ccc2O)cc1
survivor count [7]: 0 of 6

Nc1cc2c(cc1N)-c1ccccc1/C2=N\O
survivor count (dose: 300.0 mg/kg/injection, schedule: Q01DX001 (ip), vehicle: carboxymethylcellulose (CMC)): 6 of 6

CN(C)N=Nc1ccccc1C#N
survivor count [9]: 3 of 6

Cc1cc(N(CCCl)CCCl)ccc1C=Nc1ccccc1C(=O)O
survivor count (dose: 800.0 mg/kg/injection, schedule: Q01DX001 (ip), vehicle: Klucel (hydroxypropylcellulose) (HPC)): 1 of 6

O=CC1=C(Cl)c2ccccc2CC1
survivor count (dose: 25.0 mg/kg/injection, schedule: Q04DX003 (ip), vehicle: acetone): 3 of 6
survivor count (dose: 50.0 mg/kg/injection, schedule: Q04DX003 (ip), vehicle: acetone): 0 of 6
survivor count (dose: 100.0 mg/kg/injection, schedule: Q04DX003 (ip), vehicle: acetone): 0 of 6
survivor count (dose: 200.0 mg/kg/injection, schedule: Q04DX003 (ip), vehicle: acetone): 0 of 6
survivor count (dose: 400.0 mg/kg/injection, schedule: Q04DX003 (ip), vehicle: acetone): 0 of 6

C=Cc1cnc(NC(C)=O)c(C#N)n1
survivor count (dose: 400.0 mg/kg/injection, schedule: Q01DX001 (ip), vehicle: Klucel (hydroxypropylcellulose) (HPC)): 1 of 3

Cc1cc(NC(C)C)c(C)cc1NC(C)C
survivor count (dose: 50.0 mg/kg/injection, schedule: Q04DX002 (ip), vehicle: Klucel (hydroxypropylcellulose) (HPC)): 1 of 3
survivor count [2]: 0 of 3
survivor count [3]: 0 of 3
survivor count [4]: 0 of 3
